Values from PubChem BioAssay AID504804 (Drosophila RNAi Screening Center, 2011)
Screen: 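Knock-downs shielding fly cells from apoptosis caused by DNA damage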 (primary screen). System: Drosophila Kc cells. Reagents: long dsRNA against Drosophila genes, 0.5 µg dsRNA per well. Duration: 96 h (48 h knock-down, then 48 h drug). Conditions: doxorubicin 5 µg/ml for 48 h, added 48 h after dsRNA. Detection: 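Viability measured as cellular ATP by luminescence after 48 h knock-down then 48 h doxorubicin at 5 µg/ml; unnormalised plate counts for each replicate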. Reading the numbers: raw ATP luminescence: higher = more viable cells, protection from doxorubicin. Call rule: 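Active when both duplicate wells lie at least 2 SD above the plate mean and protection is confirmed by rescreening and independent dsRNAs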.
In all, the deposit lists about 19,000 reagents; below is an unselected part of those with a known target gene and a result. In the full data, 47 (0.25%) are marked active. 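Signals are raw, not normalised; exact z-scores behind calls not deposited; actives needed confirmation, so some wells reaching 2 SD are inactive.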 A number with no mark means an inactive call.

no.	Gene	DRSC id	raw ATP luminescence, replicate 1	raw ATP luminescence, replicate 2
1	Sbf (SET domain binding factor)	DRSC16852	60653	29633
2	CG10628	DRSC02080	47593	42783
3	CG12219	DRSC17829	37810	40330
4	sub (subito)	DRSC06125	66360	52067
5	Aduk (Another Drosophila Unc-51-like kinase)	DRSC16451	45337	53033
6	CG10467	DRSC09728	85033	78047
7	CG15258	DRSC02478	65917	81793
8	CG3065	DRSC04333	56830	51657
9	CG8349	DRSC03083	49960	90987
10	CG10973	DRSC09813	26650	34790
11	ca (claret)	DRSC15306	64670	54760
12	ca (claret)	DRSC16314	62360	38300
13	Rbfox1 (RNA-binding Fox protein 1)	DRSC09034	1.78e5	2.13e5
14	Rbfox1 (RNA-binding Fox protein 1)	DRSC10157	64503	53580
15	Rbfox1 (RNA-binding Fox protein 1)	DRSC10320	61427	54697
16	YL-1	DRSC02765	44180	1.03e5
17	Prp38 (pre-mRNA processing factor 38)	DRSC07060	47743	50243
18	CG32086	DRSC10586	60457	55813
19	CG14153	DRSC10155	63380	62540
20	Sema2b (Semaphorin 2b)	DRSC05609	1.01e5	1.07e5
21	Sema2b (Semaphorin 2b)	DRSC05611	1.72e5	97790
22	CG1275	DRSC08294	66080	67853
23	CG43894	DRSC10123	89183	69597
24	Mpi (Mannose phosphate isomerase)	DRSC16417	52853	59930
25	janB (janus B)	DRSC16973	49700	45520
26	Or67c (Odorant receptor 67c)	DRSC11242	64220	66947
27	Oatp30B (Organic anion transporting polypeptide 30B)	DRSC02727	84297	66877
28	Rassf (Ras association family member)	DRSC15612	41640	38507
29	HLH4C (Helix loop helix protein 4C)	DRSC18670	49530	48890
30	LSm7 (Like Sm 7)	DRSC02251	61470	60567
31	Pcf11 (Pcf11 cleavage and polyadenylation factor subunit)	DRSC05983	34277	36427
32	CG31769	DRSC01361	2.10e5	2.01e5
33	CG4741	DRSC04485	42733	38983
34	CG33099	DRSC15774	47517	52433
35	Abi (Abelson interacting protein)	DRSC14099	49383	30330
36	CG5446	DRSC02862	71903	73907
37	inaF-A	DRSC19660	3.89e5	3.11e5
38	CG34280	DRSC13229	2.45e5	2.52e5
39	CG9795	DRSC12336	29697	32557
40	CG1965	DRSC12577	60697	19697
41	CG31288	DRSC14667	63520	60110
42	Pex13 (Peroxin 13)	DRSC06877	87990	76380
43	Acp65Aa (Adult cuticle protein 65Aa)	DRSC09663	78693	79757
44	CG33340	DRSC14615	63580	51980
45	CG9777	DRSC20208	3.13e5	2.38e5
46	CR14033 (pseudo)	DRSC02358	1.00e5	78203
47	dpr15 (defective proboscis extension response 15)	DRSC12891	2.33e5	2.33e5
48	dpr15 (defective proboscis extension response 15)	DRSC14187	29313	42507
49	dpr15 (defective proboscis extension response 15)	DRSC14188	52327	49750
50	Liprin-gamma	DRSC04093	1.88e5	2.11e5
51	CG8086	DRSC03078	1.07e5	85977
52	CG8086	DRSC03079	46223	75673
53	CG5290	DRSC10501	32950	32393
54	Cyt-b5-r (Cytochrome b5-related)	DRSC03308	74620	84967
55	sit (stuck in traffic)	DRSC15760	73730	69520
56	Myc	DRSC18762	21380	24990
57	Daxx (Daxx-like protein)	DRSC03255	1.27e5	1.12e5
58	Msp300 (Muscle-specific protein 300 kDa)	DRSC00854	2.99e5	2.69e5
59	Msp300 (Muscle-specific protein 300 kDa)	DRSC00856	3.01e5	3.03e5
60	Msp300 (Muscle-specific protein 300 kDa)	DRSC00857	2.91e5	2.71e5
61	Msp300 (Muscle-specific protein 300 kDa)	DRSC00858	2.81e5	2.72e5
62	Msp300 (Muscle-specific protein 300 kDa)	DRSC02360	21627	30873
63	Msp300 (Muscle-specific protein 300 kDa)	DRSC03369	95383	86570
64	Msp300 (Muscle-specific protein 300 kDa)	DRSC03370	26737	27217
65	Cpr76Ba (Cuticular protein 76Ba)	DRSC11060	64600	70277
66	Mob2	DRSC09117	45163	59457
67	Mob2	DRSC09119	1.66e5	1.62e5
68	Mob2	DRSC09856	29183	36107
69	CG5096	DRSC02813	49663	67210
70	Polr2H (RNA polymerase II, I and III subunit H)	DRSC11642	24233	23377
71	ppan (peter pan)	DRSC17030	43810	44340
72	Sec3 (Secretory 3)	DRSC10384	51590	39587
73	CG15011	DRSC08464	32423	37113
74	CG17107	DRSC02575	43410	77337
75	Slob (Slowpoke binding protein)	DRSC02296	24750	23437
76	kin17	DRSC11890	58330	56500
77	Snoo (Sno oncogene)	DRSC01008	3.03e5	3.10e5
78	Snoo (Sno oncogene)	DRSC03004	1.31e5	81900
79	Snoo (Sno oncogene)	DRSC03035	54987	83787
80	w (white)	DRSC17233	2.63e5	2.84e5
81	w (white)	DRSC18850	51870	45960
82	CG15543	DRSC15081	60200	43080
83	Ugt49C1 (UDP-glycosyltransferase family 49 member C1)	DRSC04252	46450	35040
84	RpS5b (Ribosomal protein S5b)	DRSC16173	60480	62180
